Results reported in publication PMC4534796.
Results are given in words; binding and its absence hold for the method and conditions named. Binding seen in cells or lysates may run through a third protein. Some entries that bind do so weakly or less than the wild type. Sequences can lack the tags named with a protein.

Amino acid sequences for entries named in this document (tags omitted).
UniProt Q99558: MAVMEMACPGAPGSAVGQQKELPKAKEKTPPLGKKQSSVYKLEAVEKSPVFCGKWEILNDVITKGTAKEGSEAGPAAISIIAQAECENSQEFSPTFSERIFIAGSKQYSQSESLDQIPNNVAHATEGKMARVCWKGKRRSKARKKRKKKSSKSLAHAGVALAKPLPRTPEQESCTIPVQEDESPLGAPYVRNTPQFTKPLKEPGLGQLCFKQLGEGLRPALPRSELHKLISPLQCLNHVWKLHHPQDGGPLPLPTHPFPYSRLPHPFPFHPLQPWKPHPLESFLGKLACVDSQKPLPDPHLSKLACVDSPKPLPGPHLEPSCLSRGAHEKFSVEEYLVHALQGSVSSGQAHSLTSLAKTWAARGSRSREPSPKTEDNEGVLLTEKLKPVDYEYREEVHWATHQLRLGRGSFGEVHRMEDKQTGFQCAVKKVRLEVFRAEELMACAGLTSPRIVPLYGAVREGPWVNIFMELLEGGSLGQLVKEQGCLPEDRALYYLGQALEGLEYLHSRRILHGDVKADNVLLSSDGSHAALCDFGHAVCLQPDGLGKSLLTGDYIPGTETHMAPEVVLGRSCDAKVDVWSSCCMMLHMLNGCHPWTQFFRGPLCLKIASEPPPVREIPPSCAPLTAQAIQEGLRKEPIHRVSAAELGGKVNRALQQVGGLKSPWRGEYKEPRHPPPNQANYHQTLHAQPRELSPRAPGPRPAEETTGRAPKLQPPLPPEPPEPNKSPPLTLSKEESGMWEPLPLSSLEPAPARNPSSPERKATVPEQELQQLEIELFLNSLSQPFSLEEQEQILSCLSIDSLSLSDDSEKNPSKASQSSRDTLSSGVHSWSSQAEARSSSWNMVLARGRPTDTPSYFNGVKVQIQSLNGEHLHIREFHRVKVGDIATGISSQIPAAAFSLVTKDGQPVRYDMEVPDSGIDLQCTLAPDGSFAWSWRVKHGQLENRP

Target: T1, Flag-tagged NDRG2 (N-myc downstream-regulated gene 2), stably expressed in HUT102 cells (UniProt Q9UN36)
T1 sequence: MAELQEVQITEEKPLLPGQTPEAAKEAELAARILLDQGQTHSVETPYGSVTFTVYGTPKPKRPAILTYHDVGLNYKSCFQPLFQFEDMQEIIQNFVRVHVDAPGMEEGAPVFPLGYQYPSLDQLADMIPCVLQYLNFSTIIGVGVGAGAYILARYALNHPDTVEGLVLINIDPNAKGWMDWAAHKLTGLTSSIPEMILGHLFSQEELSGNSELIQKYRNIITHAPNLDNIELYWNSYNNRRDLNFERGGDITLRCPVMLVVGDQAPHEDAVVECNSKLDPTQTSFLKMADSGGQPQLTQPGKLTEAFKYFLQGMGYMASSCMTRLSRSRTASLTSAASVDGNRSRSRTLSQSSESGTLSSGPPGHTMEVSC
Assay: co-IP; lysates of HUT102 cells stably expressing Flag-NDRG2, treated with MG132; immunoprecipitated with anti-Flag and with anti-NIK antibodies, blotted for the other; washed 3 times with PBS

binding: binds
Substance: NF-κB-inducing kinase (NIK), endogenous in HUT102 cells (from UniProt Q99558 1-947)
